Laboratory results published in PMC7615311 (Science (New York, N.Y.), 2023).

Tests used:
H2B1N and H2B1D = assay: cells; details: Homo sapiens, HeLa, read-out: EC50 of acetylation of H2B1N and H2B1D
cortactin (CTTN) = assay: decryptM, acetylation of HDAC6 substrate cortactin in HeLa cells; type: cell-based; details: Homo sapiens, read-out: EC50 of enhanced acetylation of cortactin (CTTN)

## O=C(CCCCCCC(=O)Nc1ccccc1)NO [vorinostat]
H2B1N and H2B1D
  EC50: 1000 to 1500 nM
Cortactin (CTTN)
  EC50: 50 to 90 nM
